Measured values reported in patent publication US9630943B2, “Tetrahydronaphthyl(thio) carboxamides” (BAYER CROPSCIENCE AG, priority 2012, dated 2017).

Assay: Measurement of logP values by HPLC on reversed phase columns (EEC directive 79/831 Annex V.A8)
Format: physicochemical
Conditions: method [a]

For `Cc1nn(C)c(F)c1C(=O)Nc1cccc2c1CCC(C)(C)C2` [Example 44], which “LogP^[a]” value is on record?
Its value is 3.37^[a].
